From publication PMC9103437
No constants are given. Whether binding was seen depends on the method and setting. Binding seen in cells or lysates may run through a third protein. Some results given as binding are weak or reduced against the parent protein; the word gives no strength.

The chains behind the UniProt entries cited, without tags or fusion partners.
UniProt Q08775: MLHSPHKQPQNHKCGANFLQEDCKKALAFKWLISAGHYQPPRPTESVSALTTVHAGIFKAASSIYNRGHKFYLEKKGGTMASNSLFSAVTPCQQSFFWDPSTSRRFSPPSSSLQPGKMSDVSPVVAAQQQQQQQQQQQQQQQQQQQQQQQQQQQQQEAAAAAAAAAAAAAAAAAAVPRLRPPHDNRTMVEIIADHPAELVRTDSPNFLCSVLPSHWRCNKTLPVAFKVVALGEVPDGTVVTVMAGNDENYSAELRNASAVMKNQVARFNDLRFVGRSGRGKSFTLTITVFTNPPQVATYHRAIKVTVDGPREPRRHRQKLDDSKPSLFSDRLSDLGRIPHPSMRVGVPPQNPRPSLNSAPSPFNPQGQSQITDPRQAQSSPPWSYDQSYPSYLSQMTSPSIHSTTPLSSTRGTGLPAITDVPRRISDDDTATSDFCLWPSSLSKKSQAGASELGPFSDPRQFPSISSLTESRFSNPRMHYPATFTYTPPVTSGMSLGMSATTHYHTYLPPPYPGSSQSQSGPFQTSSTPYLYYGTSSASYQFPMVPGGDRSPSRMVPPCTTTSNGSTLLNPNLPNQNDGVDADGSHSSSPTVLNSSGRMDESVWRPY

Target: endogenous Runx2 (mouse (endogenous in primary osteoblasts)) (UniProt Q08775)
Assay: co-IP; primary osteoblast precursor cells cultured four days in OGM; lysates immunoprecipitated with anti-Runx2, western blot with anti-Lmx1b or anti-Runx2; endogenous proteins

B1: endogenous Lmx1b (protein, UniProt O88609 1-395)
chain: MDIATGPESLERCFPRGQTDCAKMLDGIKMEEHALRPGPATLGVLLGSDCPHPAVCEGCQRPISDRFLMRVNESSWHEECLQCAACQQALTTSCYFRDRKLYCKQDYQQLFAAKCSGCMEKIAPTEFVMRALECVYHLGCFCCCVCERQLRKGDEFVLKEGQLLCKGDYEKEKDLLSSVSPDESDSVKSEDEDGDMKPAKGQGSQSKGSGDDGKDPRRPKRPRTILTTQQRRAFKASFEVSSKPCRKVRETLAAETGLSVRVVQVWFQNQRAKMKKLARRHQQQQEQQNSQRLGQEVLSSRMEGMMASYTPLAPPQQQIVAMEQSPYGSSDPFQQGLTPPQMPGNDSIFHDIDSDTSLTSLSDCFLGSSDVGSLQARVGNPIDRLYSMQSSYFAS
binding: binds
